Source: PMC8505418
The exact form of at least one protein or probe is not confirmed. At least one verdict was read from the data and is not stated in words by the source.

Target: GST-Ku70 WT (human) (UniProt P12956)
Assay: EMSA
Conditions: 1 mM Mg2+, poly[d-(I-C)] competitor; 40 ug GST-fusion protein, 0.8 ng probe, 25 uL; 10 mM Tris-HCl pH 7.5, 50 mM NaCl, 1 mM MgCl2, 0.5 mM DTT, 4% glycerol, 1 ug poly[d-(I-C)], 0.1 ug poly-L-lysine; recombinant protein; residues 2-609; protein details: N-terminal GST (pGEX-6P-1); label: digoxigenin (DIG Gel Shift Kit)

**Q.** Does “TAGAGACGGGGTTTCACCGTGTTACCAGG / GATCTAACACACGGTGAAACCCCGTCTCTATGC [DIG-labeled DSB probe]” bind?
**A.** Result: binds
